Earlier results as cited in patent US7217770B2, “Stable polymeric micelle-type drug composition and method for the preparation thereof” (Samyang Corporation, priority 2000, dated 2007).

Which solubility in water does the source give for CC(=O)O[C@H]1C(=O)[C@@]2(C)[C@H]([C@H](OC(=O)c3ccccc3)[C@]3(O)C[C@H](OC(=O)[C@H](O)[C@@H](NC(=O)c4ccccc4)c4ccccc4)C(C)=C1C3(C)C)[C@]1(OC(C)=O)CO[C@@H]1C[C@@H]2O [paclitaxel] here?
The solubility in water was “less than 0.01 mg/mL”.
